The list shows a part of the results. The calls rarely recur for the same compound in another form.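 Kinases, fused to nanoluciferase, were expressed in K562 cells; luminescence was measured every 4 h from 2 to 18 h as percent of control (DMSO = 100%, positive control = 0%). A time point is decreased if signal falls significantly (2 sigma). Hits were called by the authors by a rule that is not shown; the count of time points alone does not decide it.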
Tests used:
Assay in all cases: number of time points (of 5) at which kinase-Nluc abundance scored as decreased, DMSO-normalised (count); higher = more persistent destabilization
[1] = compound: Clc1ccc(C2(c3ccc(-c4cn[nH]c4)cc3)CCNCC2)cc1; conditions: 10 µM; K562; 2-18 h
[2] = compound: Cn1cc(-c2cnc3ccc4ccc(CS(=O)(=O)NCc5ccccn5)cc4c(=O)c3c2)cn1 [MK-8033 (hydrochloride)]; conditions: 10 µM; K562; 2-18 h
[3] = compound: Cn1cc(-c2cnc3ccc4ccc(CS(=O)(=O)NCc5ccccn5)cc4c(=O)c3c2)cn1; conditions: 10 µM; K562; 2-18 h
[4] = compound: Cn1ncc(Cl)c1-c1cc(C(=O)N[C@H](CN)Cc2cccc(F)c2)sc1Cl [Afuresertib (hydrochloride)]; conditions: 10 µM; K562; 2-18 h
[5] = compound: Cn1ncc(Cl)c1-c1cc(C(=O)N[C@H](CN)Cc2cccc(F)c2)sc1Cl [Afuresertib]; conditions: 10 µM; K562; 2-18 h
[6] = compound: FC(F)(F)c1ccc(CNc2ccc(Cc3c[nH]c4ncc(Cl)cc34)cn2)cn1 [Pexidartinib (hydrochloride)]; conditions: 10 µM; K562; 2-18 h
[7] = compound: FC(F)(F)c1ccc(CNc2ccc(Cc3c[nH]c4ncc(Cl)cc34)cn2)cn1 [Pexidartinib]; conditions: 10 µM; K562; 2-18 h
[8] = compound: N#CCC1(n2cc(-c3ncnc4[nH]ccc34)cn2)CN(C2CCN(C(=O)c3ccnc(C(F)(F)F)c3F)CC2)C1 [Itacitinib adipate]; conditions: 10 µM; K562; 2-18 h
[9] = compound: N#CCC1(n2cc(-c3ncnc4[nH]ccc34)cn2)CN(C2CCN(C(=O)c3ccnc(C(F)(F)F)c3F)CC2)C1 [Itacitinib]; conditions: 10 µM; K562; 2-18 h
[10] = compound: N#CCNC(=O)c1ccc(-c2ccnc(Nc3ccc(N4CCOCC4)cc3)n2)cc1 [Momelotinib sulfate]; conditions: 10 µM; K562; 2-18 h
[11] = compound: N#CCNC(=O)c1ccc(-c2ccnc(Nc3ccc(N4CCOCC4)cc3)n2)cc1 [Momelotinib]; conditions: 10 µM; K562; 2-18 h
[12] = compound: N#CC[C@H](C1CCCC1)n1cc(-c2ncnc3[nH]ccc23)cn1 [Ruxolitinib (phosphate)]; conditions: 10 µM; K562; 2-18 h
[13] = compound: N#CC[C@H](C1CCCC1)n1cc(-c2ncnc3[nH]ccc23)cn1 [Ruxolitinib]; conditions: 10 µM; K562; 2-18 h
[14] = compound: N=C(N)NC(=O)c1nc(Cl)c(N)nc1N [Amiloride (hydrochloride)]; conditions: 10 µM; K562; 2-18 h
[15] = compound: N=C(N)NC(=O)c1nc(Cl)c(N)nc1N [Amiloride hydrochloride dihydrate]; conditions: 10 µM; K562; 2-18 h
[16] = compound: Nc1cncc(-c2cn3ccnc3c(Nc3ccc(N4CCN(C5COC5)CC4)cc3)n2)n1 [Lanraplenib (succinate)]; conditions: 10 µM; K562; 2-18 h
[17] = compound: Nc1cncc(-c2cn3ccnc3c(Nc3ccc(N4CCN(C5COC5)CC4)cc3)n2)n1 [Lanraplenib]; conditions: 10 µM; K562; 2-18 h
[18] = compound: Nc1ncnc2c1c(-c1ccc(Oc3ccccc3)cc1)nn2[C@@H]1CCCNC1 [IBT6A (hydrochloride)]; conditions: 2.5 µM; K562; 2-18 h
[19] = compound: Nc1ncnc2c1c(-c1ccc(Oc3ccccc3)cc1)nn2[C@@H]1CCCNC1; conditions: 2.5 µM; K562; 2-18 h
[20] = compound: O=C(Nc1ccncc1)Nc1ccc(-c2nc(N3CCOCC3)nc(N3C4CCC3COC4)n2)cc1 [PKI-179 (hydrochloride)]; conditions: 2.5 µM; K562; 2-18 h

Amino acid sequences for entries named in this document (tags omitted). A change or cut given only in a name is not applied to a line headed by its entry.
UniProt Q92630: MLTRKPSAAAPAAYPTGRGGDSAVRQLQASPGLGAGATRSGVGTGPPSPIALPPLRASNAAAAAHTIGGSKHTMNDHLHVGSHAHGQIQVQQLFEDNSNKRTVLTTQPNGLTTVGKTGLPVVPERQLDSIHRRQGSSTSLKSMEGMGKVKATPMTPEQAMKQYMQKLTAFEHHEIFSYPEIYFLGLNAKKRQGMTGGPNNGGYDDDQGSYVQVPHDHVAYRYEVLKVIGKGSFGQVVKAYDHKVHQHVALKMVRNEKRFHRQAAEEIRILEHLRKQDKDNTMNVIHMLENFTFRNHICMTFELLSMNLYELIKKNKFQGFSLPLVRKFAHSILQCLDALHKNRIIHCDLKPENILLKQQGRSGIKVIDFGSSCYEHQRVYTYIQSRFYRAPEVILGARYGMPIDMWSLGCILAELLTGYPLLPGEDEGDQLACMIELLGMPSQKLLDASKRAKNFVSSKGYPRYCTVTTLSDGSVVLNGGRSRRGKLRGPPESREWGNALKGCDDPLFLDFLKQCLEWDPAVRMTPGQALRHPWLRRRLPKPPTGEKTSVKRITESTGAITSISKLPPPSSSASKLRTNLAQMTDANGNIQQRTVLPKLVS
UniProt Q9Y463, whole entry, looked up: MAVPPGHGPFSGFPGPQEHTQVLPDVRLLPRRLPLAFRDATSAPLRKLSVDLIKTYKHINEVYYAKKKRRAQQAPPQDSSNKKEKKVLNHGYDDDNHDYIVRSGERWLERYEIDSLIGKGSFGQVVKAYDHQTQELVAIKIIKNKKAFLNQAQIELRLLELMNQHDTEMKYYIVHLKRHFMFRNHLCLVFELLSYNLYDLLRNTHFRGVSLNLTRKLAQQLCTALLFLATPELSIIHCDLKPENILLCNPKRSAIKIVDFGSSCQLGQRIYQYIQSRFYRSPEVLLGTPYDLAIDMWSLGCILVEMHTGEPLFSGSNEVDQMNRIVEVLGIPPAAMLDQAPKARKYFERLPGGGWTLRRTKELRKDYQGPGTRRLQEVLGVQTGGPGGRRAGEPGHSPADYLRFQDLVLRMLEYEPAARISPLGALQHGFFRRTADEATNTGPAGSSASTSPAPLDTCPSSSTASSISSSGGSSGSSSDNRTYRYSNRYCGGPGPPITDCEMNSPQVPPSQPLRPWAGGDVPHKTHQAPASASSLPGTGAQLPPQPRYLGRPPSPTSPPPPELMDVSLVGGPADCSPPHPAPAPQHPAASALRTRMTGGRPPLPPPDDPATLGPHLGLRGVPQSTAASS
UniProt Q00535, whole entry, looked up: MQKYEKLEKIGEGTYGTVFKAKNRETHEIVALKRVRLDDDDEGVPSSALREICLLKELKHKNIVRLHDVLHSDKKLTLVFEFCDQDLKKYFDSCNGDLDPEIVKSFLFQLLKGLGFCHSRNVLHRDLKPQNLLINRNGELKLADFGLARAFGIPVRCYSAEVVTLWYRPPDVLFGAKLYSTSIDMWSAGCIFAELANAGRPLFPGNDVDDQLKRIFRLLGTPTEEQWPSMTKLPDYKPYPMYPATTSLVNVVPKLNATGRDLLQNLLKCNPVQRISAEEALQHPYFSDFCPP
UniProt Q12851: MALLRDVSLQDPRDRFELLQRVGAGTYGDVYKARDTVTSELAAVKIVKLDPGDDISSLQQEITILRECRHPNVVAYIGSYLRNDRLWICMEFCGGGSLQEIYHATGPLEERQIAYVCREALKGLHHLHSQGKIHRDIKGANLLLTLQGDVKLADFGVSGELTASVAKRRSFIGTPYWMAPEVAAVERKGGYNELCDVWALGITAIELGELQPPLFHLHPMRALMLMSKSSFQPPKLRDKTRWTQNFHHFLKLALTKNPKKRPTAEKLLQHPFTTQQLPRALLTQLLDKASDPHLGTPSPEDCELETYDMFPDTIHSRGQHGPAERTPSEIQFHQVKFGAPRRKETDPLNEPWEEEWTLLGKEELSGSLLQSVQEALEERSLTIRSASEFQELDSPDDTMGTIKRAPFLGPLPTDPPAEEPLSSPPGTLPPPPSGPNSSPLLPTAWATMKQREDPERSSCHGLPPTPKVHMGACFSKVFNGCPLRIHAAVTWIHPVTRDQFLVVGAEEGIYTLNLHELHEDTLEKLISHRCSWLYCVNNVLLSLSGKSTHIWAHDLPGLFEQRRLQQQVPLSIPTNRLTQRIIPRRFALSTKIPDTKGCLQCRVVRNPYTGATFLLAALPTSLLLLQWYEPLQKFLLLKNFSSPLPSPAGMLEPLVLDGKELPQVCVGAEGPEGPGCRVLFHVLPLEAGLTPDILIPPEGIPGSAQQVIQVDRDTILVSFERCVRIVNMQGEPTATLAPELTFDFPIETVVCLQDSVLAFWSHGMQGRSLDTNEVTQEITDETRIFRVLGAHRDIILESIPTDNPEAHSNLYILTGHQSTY
UniProt Q13131: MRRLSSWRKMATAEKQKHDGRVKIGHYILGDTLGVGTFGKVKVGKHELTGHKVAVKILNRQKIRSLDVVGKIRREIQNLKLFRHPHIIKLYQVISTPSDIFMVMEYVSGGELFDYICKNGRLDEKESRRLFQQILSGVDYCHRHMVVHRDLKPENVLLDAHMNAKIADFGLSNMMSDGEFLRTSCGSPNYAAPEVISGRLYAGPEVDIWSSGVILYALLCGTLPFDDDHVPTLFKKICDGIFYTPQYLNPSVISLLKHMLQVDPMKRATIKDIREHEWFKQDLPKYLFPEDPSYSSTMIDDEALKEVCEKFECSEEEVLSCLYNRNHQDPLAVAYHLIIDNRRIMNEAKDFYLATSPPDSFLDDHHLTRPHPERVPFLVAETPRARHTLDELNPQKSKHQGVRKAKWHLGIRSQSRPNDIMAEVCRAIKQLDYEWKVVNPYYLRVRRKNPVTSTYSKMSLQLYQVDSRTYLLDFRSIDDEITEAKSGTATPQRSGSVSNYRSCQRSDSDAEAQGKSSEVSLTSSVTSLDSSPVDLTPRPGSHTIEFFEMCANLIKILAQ
UniProt Q15131: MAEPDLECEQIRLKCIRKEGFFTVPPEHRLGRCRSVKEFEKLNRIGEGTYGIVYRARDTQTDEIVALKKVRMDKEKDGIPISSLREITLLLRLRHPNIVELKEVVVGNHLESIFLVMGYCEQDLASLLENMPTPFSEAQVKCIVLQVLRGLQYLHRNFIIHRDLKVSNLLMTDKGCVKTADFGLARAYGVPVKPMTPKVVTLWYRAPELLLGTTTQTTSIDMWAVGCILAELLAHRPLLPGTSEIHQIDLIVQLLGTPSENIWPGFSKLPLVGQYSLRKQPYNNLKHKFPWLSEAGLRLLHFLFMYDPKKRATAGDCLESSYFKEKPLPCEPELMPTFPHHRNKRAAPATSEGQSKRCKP
UniProt O75460: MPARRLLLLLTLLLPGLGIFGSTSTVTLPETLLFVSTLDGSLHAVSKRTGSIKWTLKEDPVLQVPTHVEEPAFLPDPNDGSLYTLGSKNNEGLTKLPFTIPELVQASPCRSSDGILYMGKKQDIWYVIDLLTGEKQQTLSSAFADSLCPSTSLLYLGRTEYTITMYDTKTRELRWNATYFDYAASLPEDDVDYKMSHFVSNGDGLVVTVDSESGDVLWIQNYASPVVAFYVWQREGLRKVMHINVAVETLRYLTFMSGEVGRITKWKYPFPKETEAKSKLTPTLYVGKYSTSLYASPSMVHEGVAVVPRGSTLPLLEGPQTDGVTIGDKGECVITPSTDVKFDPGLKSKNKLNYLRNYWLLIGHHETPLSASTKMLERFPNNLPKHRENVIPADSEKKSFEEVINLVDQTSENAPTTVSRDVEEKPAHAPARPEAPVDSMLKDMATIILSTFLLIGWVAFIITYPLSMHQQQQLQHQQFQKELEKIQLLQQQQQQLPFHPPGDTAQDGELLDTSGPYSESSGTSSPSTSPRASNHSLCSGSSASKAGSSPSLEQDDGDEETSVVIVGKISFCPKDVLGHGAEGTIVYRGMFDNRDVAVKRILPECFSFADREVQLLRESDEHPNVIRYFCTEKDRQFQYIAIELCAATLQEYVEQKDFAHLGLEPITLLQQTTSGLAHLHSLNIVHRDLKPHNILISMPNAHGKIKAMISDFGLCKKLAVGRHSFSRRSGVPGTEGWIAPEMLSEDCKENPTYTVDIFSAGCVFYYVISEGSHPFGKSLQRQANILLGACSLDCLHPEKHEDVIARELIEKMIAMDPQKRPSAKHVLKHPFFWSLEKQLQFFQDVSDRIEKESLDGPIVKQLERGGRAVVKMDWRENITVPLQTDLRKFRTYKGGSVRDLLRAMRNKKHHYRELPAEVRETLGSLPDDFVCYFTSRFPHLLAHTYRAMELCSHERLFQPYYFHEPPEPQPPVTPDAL
UniProt P51451: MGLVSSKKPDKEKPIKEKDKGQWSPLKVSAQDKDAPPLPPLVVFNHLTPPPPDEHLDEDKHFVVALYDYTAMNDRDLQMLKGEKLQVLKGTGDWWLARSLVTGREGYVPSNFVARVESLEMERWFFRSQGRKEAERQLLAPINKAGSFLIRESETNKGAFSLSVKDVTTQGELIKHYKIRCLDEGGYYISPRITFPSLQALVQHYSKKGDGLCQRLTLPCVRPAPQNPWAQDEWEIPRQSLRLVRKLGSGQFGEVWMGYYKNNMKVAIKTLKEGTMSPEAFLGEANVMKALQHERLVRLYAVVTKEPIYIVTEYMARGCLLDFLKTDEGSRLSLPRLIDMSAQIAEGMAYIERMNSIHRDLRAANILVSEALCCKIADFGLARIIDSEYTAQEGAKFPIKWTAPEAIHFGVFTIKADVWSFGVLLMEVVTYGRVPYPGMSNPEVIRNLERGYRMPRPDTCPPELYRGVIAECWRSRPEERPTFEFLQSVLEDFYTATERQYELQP
UniProt P48729: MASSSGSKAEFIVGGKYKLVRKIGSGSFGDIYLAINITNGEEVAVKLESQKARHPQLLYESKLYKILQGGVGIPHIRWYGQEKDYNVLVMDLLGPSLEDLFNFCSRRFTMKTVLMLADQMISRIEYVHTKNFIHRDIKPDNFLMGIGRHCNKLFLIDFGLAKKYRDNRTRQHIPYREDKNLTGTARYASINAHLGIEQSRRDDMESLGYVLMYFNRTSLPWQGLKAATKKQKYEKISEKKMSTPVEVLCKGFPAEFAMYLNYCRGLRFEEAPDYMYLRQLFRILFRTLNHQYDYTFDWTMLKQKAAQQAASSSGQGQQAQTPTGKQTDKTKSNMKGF
UniProt Q8IWU2: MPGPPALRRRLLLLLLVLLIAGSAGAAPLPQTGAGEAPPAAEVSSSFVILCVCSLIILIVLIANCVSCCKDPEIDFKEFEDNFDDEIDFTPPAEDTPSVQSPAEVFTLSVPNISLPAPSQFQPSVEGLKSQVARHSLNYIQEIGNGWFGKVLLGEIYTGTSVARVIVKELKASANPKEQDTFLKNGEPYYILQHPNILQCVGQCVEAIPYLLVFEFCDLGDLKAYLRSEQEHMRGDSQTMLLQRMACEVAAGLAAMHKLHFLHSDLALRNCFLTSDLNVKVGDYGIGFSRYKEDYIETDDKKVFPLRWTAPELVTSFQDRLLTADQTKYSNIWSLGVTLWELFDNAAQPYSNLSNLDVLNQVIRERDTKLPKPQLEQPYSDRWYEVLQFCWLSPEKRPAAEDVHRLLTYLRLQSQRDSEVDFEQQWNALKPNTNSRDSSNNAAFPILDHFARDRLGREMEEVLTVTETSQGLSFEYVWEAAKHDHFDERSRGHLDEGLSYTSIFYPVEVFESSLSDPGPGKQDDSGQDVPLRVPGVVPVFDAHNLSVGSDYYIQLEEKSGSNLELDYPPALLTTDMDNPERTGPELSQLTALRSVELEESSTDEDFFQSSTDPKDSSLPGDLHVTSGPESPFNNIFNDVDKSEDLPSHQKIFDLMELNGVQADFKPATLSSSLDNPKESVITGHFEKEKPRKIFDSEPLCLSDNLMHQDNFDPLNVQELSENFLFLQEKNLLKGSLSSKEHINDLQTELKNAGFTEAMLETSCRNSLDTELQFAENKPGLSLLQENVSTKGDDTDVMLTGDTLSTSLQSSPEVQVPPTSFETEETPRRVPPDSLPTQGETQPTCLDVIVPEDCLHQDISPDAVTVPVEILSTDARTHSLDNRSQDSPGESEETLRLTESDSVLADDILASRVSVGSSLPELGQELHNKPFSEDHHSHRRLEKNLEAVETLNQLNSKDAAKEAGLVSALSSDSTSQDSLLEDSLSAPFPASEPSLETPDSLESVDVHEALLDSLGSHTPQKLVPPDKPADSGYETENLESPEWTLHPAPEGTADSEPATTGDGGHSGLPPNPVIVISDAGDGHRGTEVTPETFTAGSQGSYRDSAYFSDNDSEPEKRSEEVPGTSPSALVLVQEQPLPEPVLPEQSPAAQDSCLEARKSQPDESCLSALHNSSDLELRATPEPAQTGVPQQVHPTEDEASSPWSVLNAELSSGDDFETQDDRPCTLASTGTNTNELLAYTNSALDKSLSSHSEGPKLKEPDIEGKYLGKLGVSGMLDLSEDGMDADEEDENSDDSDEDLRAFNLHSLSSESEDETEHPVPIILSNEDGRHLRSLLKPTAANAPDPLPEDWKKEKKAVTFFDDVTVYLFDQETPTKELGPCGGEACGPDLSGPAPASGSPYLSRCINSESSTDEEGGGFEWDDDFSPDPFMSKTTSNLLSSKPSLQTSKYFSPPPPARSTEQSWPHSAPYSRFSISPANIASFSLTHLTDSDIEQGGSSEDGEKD

Measured: number of time points

FGFR1 (UniProt P11362)
3: [20]
0: all other assays above

LIMK2 (UniProt P53671)
3: [20]
1: [4]
2: [1]
0: all other assays above

PDPK1 (UniProt O15530)
4: [20]
2: [1]
1: [2] | [10]
0: all other assays above

PDGFRB (UniProt P09619)
0: all assays above

RAF1 (UniProt P04049)
2: [1]
3: [20]
0: all other assays above

LYN (UniProt P07948)
3: [20]
2: [1]
0: all other assays above

PBK (UniProt Q96KB5)
0: all assays above

DYRK2 (UniProt Q92630)
3: [4] | [18]
1: [19]
4: [1] | [20]
0: all other assays above

ERBB3 (UniProt P21860)
2: [1]
4: [20]
0: all other assays above

PTK2 (UniProt Q05397)
3: [20]
1: [1]
0: all other assays above

RIPK2 (UniProt O43353)
3: [20]
1: [10] | [18]
0: all other assays above

INSRR (UniProt P14616)
1: [1] | [4]
4: [20]
0: all other assays above

EGFR_L861Q (UniProt P00533)
3: [1]
1: [20]
0: all other assays above

DYRK1B (UniProt Q9Y463)
1: [20]
0: all other assays above

BMX (UniProt P51813)
3: [1]
2: [20]
0: all other assays above

CDK5 (UniProt Q00535)
0: all assays above

CSK (UniProt P41240)
0: all assays above

MAP4K2 (UniProt Q12851)
0: all assays above

FGFR3 (UniProt P22607)
4: [20]
0: all other assays above

LCK (UniProt P06239)
0: all assays above

PLK1 (UniProt P53350)
3: [20]
0: all other assays above

CDK2 (UniProt P24941)
0: all assays above

MAPK1 (UniProt P28482)
3: [20]
0: all other assays above

FLT3 (UniProt P36888)
4: [20]
0: all other assays above

FYN (UniProt P06241)
1: [4]
4: [20]
0: all other assays above

CDK3 (UniProt Q00526)
0: all assays above

Reprinted at random: four records from the list, in no set order.
INSRR (UniProt P14616)
1: [1] | [4]
4: [20]
0: all other assays above

DYRK2 (UniProt Q92630)
3: [4] | [18]
1: [19]
4: [1] | [20]
0: all other assays above

FLT3 (UniProt P36888)
4: [20]
0: all other assays above

CDK3 (UniProt Q00526)
0: all assays above

The listing continues:

EGFR_G719S_T790M (UniProt P00533)
2: [1]
1: [2]
0: all other assays above

PRKCA (UniProt P17252)
0: all assays above

CDK6 (UniProt Q00534)
1: [20]
0: all other assays above

TEC (UniProt P42680)
3: [20]
2: [7]
0: all other assays above

PIK4CA (UniProt P42356)
4: [20]
0: all other assays above

PRKAA1 (UniProt Q13131)
3: [20]
0: all other assays above

MAPKAPK2 (UniProt P49137)
0: all assays above

BRAF_V600E
4: [20]
0: all other assays above

EPHA2 (UniProt P29317)
0: all assays above

LIMK1 (UniProt P53667)
3: [1]
4: [20]
0: all other assays above

IRAK3 (UniProt Q9Y616)
2: [20]
0: all other assays above

PDK1 (UniProt Q15118)
0: all assays above

CDK10 (UniProt Q15131)
4: [20]
0: all other assays above

ERN1 (UniProt O75460)
2: [20]
0: all other assays above

AURKA (UniProt O14965)
4: [20]
3: [1] | [11]
2: [4]
0: all other assays above

AURKC (UniProt Q9UQB9)
2: [20]
0: all other assays above

RIPK1 (UniProt Q13546)
3: [19] | [20]
1: [4]
0: all other assays above

EGFR (UniProt P00533)
1: [20]
0: all other assays above

BLK (UniProt P51451)
3: [5] | [20]
1: [4]
2: [18]
0: all other assays above

CSNK1A1 (UniProt P48729)
1: [7] | [11]
3: [20]
0: all other assays above

ZAP70 (UniProt P43403)
0: all assays above

MAPK4 (UniProt P31152)
1: [1] | [20]
0: all other assays above

LMTK2 (UniProt Q8IWU2)
1: [1]
3: [20]
0: all other assays above

ZAK (UniProt Q9NYL2)
0: all assays above

PTK2B (UniProt Q14289)
2: [1]
1: [20]
0: all other assays above

EGFR_L858R (UniProt P00533)
2: [1]
0: all other assays above

ALK (UniProt Q9UM73)
1: [20]
0: all other assays above

PAK4 (UniProt O96013)
0: all assays above

BTK (UniProt Q06187)
0: all assays above

ROR2 (UniProt Q01974)
2: [20]
0: all other assays above

BRAF (UniProt P15056)
3: [20]
1: [1]
0: all other assays above

FGR (UniProt P09769)
0: all assays above

ERBB4_R711C (clone: ERBB4_mut) (UniProt Q15303)
4: [20]
3: [1]
0: all other assays above

DDR1 (UniProt Q08345)
2: [11]
4: [20]
1: [1] | [4] | [18]
0: all other assays above

MKNK1 (UniProt Q9BUB5)
3: [20]
0: all other assays above

From the supplement of paper PMC12823440, “Inhibitors supercharge kinase turnover through native proteolytic circuits” (Nature, 2025)
